PubChem BioAssay AID602196, INSERM | 2012

- Screen: 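Genes whose knock-down alters cisplatin killing of lung cancer cells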
- Cells: human A549 lung cancer cells
- Reagent: siRNA pair against human genes
- Duration: 48 h transfection before cisplatin; time from cisplatin to read-out not stated
- Challenge: cisplatin at a dose killing half of control-siRNA cells; exact dose and duration not given
- Detection: 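Shift in cisplatin death relative to control siRNA, from -50 (all cells die) to +50 (no cells die); siRNAs harmful on their own scored 0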
- Scale: two-siRNA summed score (-2 to +2): higher = both siRNAs protect from cisplatin killing; -2 means both sensitise; mean protection from cisplatin (shift in death): higher = protection from cisplatin killing
- Hit rule: 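siRNAs harmful alone (LDH or WST-1) get 0; others get +1 for less and -1 for more cisplatin killing; genes are active when the two siRNAs give the same sign, summing to ±2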
- Calls: active = both siRNAs shift cisplatin killing the same way; inactive = no consistent shift, or siRNA harmful alone
This is one part, drawn at random, of about 23,000 reagents tested. In the full data, 455 (2%) were called active. 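Active includes both protection and sensitisation; some change values fall well beyond the stated -50 to +50 range.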 A number with no mark means an inactive call. The numbers tell different reagents against one gene apart. Further read-outs or replicates are left out here. No sequences are given here. The record does not give: the amount of reagent.

| target gene | reagent | two-siRNA summed score (-2 to +2) | mean protection from cisplatin (shift in death) (%) |
| --- | --- | --- | --- |
| TMEM89 | 1 | 0 | 16.8 |
| MRPS24 | 1 | 0 | 7.1 |
| PADI1 | 1 | 1 | 2.4 |
| GOLGA7 | 1 | 1 | 12.6 |
| HLA-DRA | 1 | 0 | 1.1 |
| GABRR3 | 1 | 0 | 0.3 |
| LOC387755 | 1 | 0 | 3.9 |
| FAM32A | 1 | 0 | -1.6 |
| ZNF571 | 1 | 0 | 8.8 |
| LBHD1 | 1 | 0 | 8.6 |
| SLCO6A1 | 1 | 0 | 16.8 |
| LOC440852 | 1 | 0 | 21.6 |
| CCDC158 | 1 | 0 | 0.9 |
| RAB11FIP1 | 1 | 0 | -7.1 |
| HSH2D | 1 | 0 | 0.7 |
| DENND10 | 1 | 0 | 11.7 |
| CNTNAP1 | 1 | 0 | 5.2 |
| LINC01140 | 1 | 1 | 12.9 |
| LOC387701 | 1 | 1 | 15.2 |
| LOC401097 | 1 | 0 | -8.4 |
| H2AC20 | 1 | 0 | 10.6 |
| PRRT2 | 1 | 0 | -3.3 |
| ELAVL2 | 1 | -1 | -4.2 |
| LOC440308 | 1 | 0 | 10.2 |
| C8G | 1 | 1 | 18.5 |
| CALML5 | 1 | 0 | -1.5 |
| PSMC3IP | 1 | -1 | -26.3 |
| TCAP | 1 | 0 | -13.6 |
| LOC340843 | 1 | 0 | 1.1 |
| PCBD1 | 1 | 0 | -9.4 |
| PUS1 | 1 | 0 | 4.1 |
| C16orf89 | 1 | 0 | -0.9 |
| TRAPPC4 | 1 | -1 | -16.1 |
| CA11 | 1 | 0 | -2.3 |
| TLE3 | 1 | 0 | 3.2 |
| TFG | 1 | 0 | 7.5 |
| VPS26B | 1 | 0 | 2.3 |
| NF1 | 1 | 0 | -6.3 |
| TRIM24 | 1 | -1 | -11.8 |
| TAX1BP1 | 1 | 0 | 12.6 |
| FOXC2 | 1 | 0 | 0.8 |

Entries listed so far whose gene name begins with L or l:
| target gene | reagent | two-siRNA summed score (-2 to +2) | mean protection from cisplatin (shift in death) (%) |
| --- | --- | --- | --- |
| LOC387755 | 1 | 0 | 3.9 |
| LBHD1 | 1 | 0 | 8.6 |
| LOC440852 | 1 | 0 | 21.6 |
| LINC01140 | 1 | 1 | 12.9 |
| LOC387701 | 1 | 1 | 15.2 |
| LOC401097 | 1 | 0 | -8.4 |
| LOC440308 | 1 | 0 | 10.2 |
| LOC340843 | 1 | 0 | 1.1 |

The list goes on.
| target gene | reagent | two-siRNA summed score (-2 to +2) | mean protection from cisplatin (shift in death) (%) |
| --- | --- | --- | --- |
| C4orf50 | 1 | 0 | -1.8 |
| LOC440031 (retired record) | 1 | 0 | 4.3 |
| LOC389221 | 1 | 1 | 17.9 |
| OR10R2 | 1 | 0 | 3.2 |
| OR10R2 | 2 | 2 (active) | 15.2 |
| SCN1A | 1 | 1 | 12.8 |
| NABP2 | 1 | 0 | -4.1 |
| TRIM26 | 1 | 0 | 11.4 |
| DCLRE1B | 1 | 0 | -1 |
| ZNF469 | 1 | 0 | 11.3 |
| LOC402094 | 1 | 0 | 6.3 |
| LOC387716 | 1 | 1 | 7.5 |
| RPS6KB2 | 1 | 1 | 11.4 |
| LRSAM1 | 1 | 0 | 10.7 |
| ZFTRAF1 | 1 | 0 | 5.8 |
| LOC442208 | 1 | 0 | -7.8 |
| LOC286404 | 1 | -1 | -1.1 |
| TAF11 | 1 | 0 | -5.1 |
| LOC197350 | 1 | 0 | -2.7 |
| ZNF746 | 1 | 0 | -0.2 |
| OR8J1 | 1 | 0 | 0.3 |
| LOC388774 | 1 | 0 | 6.3 |
| TRIM63 | 1 | 0 | -4 |
| LOC441636 | 1 | 0 | -1 |
| CD300LB | 1 | 0 | 0.2 |
| CZ1P-ASNS | 1 | 0 | 12.1 |
| AGA | 1 | 0 | 6.7 |
| SIRT3 | 1 | 0 | -13.6 |
| LOC440463 | 1 | 0 | 0.3 |
| ZNF365 | 1 | 0 | 8.6 |
| FMC1 | 1 | 1 | 8.1 |
| ABHD4 | 1 | 0 | 0.4 |
